Laboratory results: PubChem BioAssay AID1159579 (Peter MacCallum Cancer Centre, 2015)

Purpose: 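Follow-up screen seeking modulators of motility in lymphatic endothelial cells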 (follow-up of hits)
Cell system: human dermal lymphatic endothelial cells
Reagent: single siRNA against human genes, 25 nM
Detection: 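High content images of wound closure area and cell nuclei counts, each the average of two wells, expressed against mock transfection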
Scale: migration relative to mock: higher = more migration into the scratch; mean nuclei count: higher = more cells remaining
Hit rule: 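Called active when the migration ratio is 0.6 or lower (impaired) or 1.3 or higher (accelerated), but inactive whenever the mean nuclei count falls under 3300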
Calls: active = migration changed (impaired or accelerated); inactive = no migration change, or too few cells
Shown is a random part of about 2,000 reagents. In the full data, 549 (27%) were called active. 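Some migration ratios are negative; siRNAs with too few cells are inactive whatever their migration ratio.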 Reagents against one gene are numbered here. Not stated in the record: the time to read-out.

| target | siRNA no. | migration relative to mock | migration and cell number class | mean nuclei count | outcome |
| --- | --- | --- | --- | --- | --- |
| TFAP2C (transcription factor AP-2 gamma) | 1 | 0.86 | no change in migration or cell number | 5932 | inactive |
| TFAP2C (transcription factor AP-2 gamma) | 2 | 0.03 | migration reduced | 3324 | active |
| TFAP2C (transcription factor AP-2 gamma) | 3 | 0.52 | migration reduced | 5089 | active |
| TFAP2C (transcription factor AP-2 gamma) | 4 | 0.79 | no change in migration or cell number | 5820 | inactive |
| ELP2 (elongator acetyltransferase complex subunit 2) | 1 | 0.55 | migration reduced | 4472 | active |
| ELP2 (elongator acetyltransferase complex subunit 2) | 2 | 0.93 | no change in migration or cell number | 6995 | inactive |
| ELP2 (elongator acetyltransferase complex subunit 2) | 3 | 0.98 | no change in migration or cell number | 6119 | inactive |
| ELP2 (elongator acetyltransferase complex subunit 2) | 4 | 0.6 | migration reduced | 5532 | active |
| CFAP251 (cilia and flagella associated protein 251) | 1 | 0.78 | no change in migration or cell number | 5634 | inactive |
| CFAP251 (cilia and flagella associated protein 251) | 2 | 1.08 | no change in migration or cell number | 7288 | inactive |
| CFAP251 (cilia and flagella associated protein 251) | 3 | 0.82 | no change in migration or cell number | 4682 | inactive |
| CFAP251 (cilia and flagella associated protein 251) | 4 | 1.14 | no change in migration or cell number | 4152 | inactive |
| MPST (mercaptopyruvate sulfurtransferase) | 1 | 0.84 | no change in migration or cell number | 7001 | inactive |
| MPST (mercaptopyruvate sulfurtransferase) | 2 | 0.51 | migration reduced | 5486 | active |
| MPST (mercaptopyruvate sulfurtransferase) | 3 | -0.56 | too few cells; migration not scored | 2119 | inactive |
| MPST (mercaptopyruvate sulfurtransferase) | 4 | 0.74 | no change in migration or cell number | 6255 | inactive |
| TCF19 (transcription factor 19) | 1 | 1.14 | no change in migration or cell number | 5021 | inactive |
| TCF19 (transcription factor 19) | 2 | 0.98 | no change in migration or cell number | 5832 | inactive |
| TCF19 (transcription factor 19) | 3 | 0.64 | no change in migration or cell number | 4798 | inactive |
| TCF19 (transcription factor 19) | 4 | 0.5 | migration reduced | 4830 | active |
| USP18 (ubiquitin specific peptidase 18) | 1 | 0.74 | no change in migration or cell number | 4253 | inactive |
| USP18 (ubiquitin specific peptidase 18) | 2 | 0.04 | migration reduced | 3534 | active |
| USP18 (ubiquitin specific peptidase 18) | 3 | 0.92 | no change in migration or cell number | 5924 | inactive |
| USP18 (ubiquitin specific peptidase 18) | 4 | 0.8 | no change in migration or cell number | 6394 | inactive |

A few values from above.
For “migration relative to mock”, TFAP2C (transcription factor AP-2 gamma) #3 is entered as 0.52
ELP2 (elongator acetyltransferase complex subunit 2) #4, mean nuclei count = 5532
CFAP251 (cilia and flagella associated protein 251) #1, outcome → inactive
TFAP2C (transcription factor AP-2 gamma) #1, migration relative to mock → 0.86
Under “mean nuclei count”, TCF19 (transcription factor 19) #2 is entered as 5832

More reagents:
| target | siRNA no. | migration relative to mock | migration and cell number class | mean nuclei count | outcome |
| --- | --- | --- | --- | --- | --- |
| P2RX2 (purinergic receptor P2X 2) | 1 | 0.33 | migration reduced | 5384 | active |
| P2RX2 (purinergic receptor P2X 2) | 2 | 0.48 | migration reduced | 5014 | active |
| P2RX2 (purinergic receptor P2X 2) | 3 | 0.68 | no change in migration or cell number | 6308 | inactive |
| P2RX2 (purinergic receptor P2X 2) | 4 | 0.18 | migration reduced | 3847 | active |
| GPR84 (G protein-coupled receptor 84) | 1 | 0.6 | migration reduced | 6432 | active |
| GPR84 (G protein-coupled receptor 84) | 2 | 0.91 | no change in migration or cell number | 4225 | inactive |
| GPR84 (G protein-coupled receptor 84) | 3 | 0.34 | migration reduced | 5147 | active |
| GPR84 (G protein-coupled receptor 84) | 4 | -0.84 | migration reduced | 3538 | active |
| UHMK1 (U2AF homology motif kinase 1) | 1 | 0.64 | no change in migration or cell number | 5946 | inactive |
| UHMK1 (U2AF homology motif kinase 1) | 2 | 0.15 | migration reduced | 4814 | active |
| UHMK1 (U2AF homology motif kinase 1) | 3 | 0.52 | migration reduced | 5618 | active |
| UHMK1 (U2AF homology motif kinase 1) | 4 | 0.42 | migration reduced | 4875 | active |
| ROBO1 (roundabout guidance receptor 1) | 1 | 0.97 | no change in migration or cell number | 6616 | inactive |
| ROBO1 (roundabout guidance receptor 1) | 2 | 0.98 | no change in migration or cell number | 6376 | inactive |
| ROBO1 (roundabout guidance receptor 1) | 3 | 1.08 | no change in migration or cell number | 7551 | inactive |
| ROBO1 (roundabout guidance receptor 1) | 4 | 1.09 | no change in migration or cell number | 5152 | inactive |
| ARL11 (ARF like GTPase 11) | 1 | 0.86 | no change in migration or cell number | 5811 | inactive |
| ARL11 (ARF like GTPase 11) | 2 | 0.56 | migration reduced | 3712 | active |
| ARL11 (ARF like GTPase 11) | 3 | 0.94 | no change in migration or cell number | 7009 | inactive |
| ARL11 (ARF like GTPase 11) | 4 | 0.82 | no change in migration or cell number | 5232 | inactive |
| KRT6B (keratin 6B) | 1 | 1.08 | no change in migration or cell number | 7194 | inactive |
| KRT6B (keratin 6B) | 2 | 0.74 | no change in migration or cell number | 6062 | inactive |
| KRT6B (keratin 6B) | 3 | 0.74 | no change in migration or cell number | 5444 | inactive |
| KRT6B (keratin 6B) | 4 | 0.86 | no change in migration or cell number | 5839 | inactive |
| FLOT2 (flotillin 2) | 1 | 0.85 | no change in migration or cell number | 5172 | inactive |
| FLOT2 (flotillin 2) | 2 | 1.09 | no change in migration or cell number | 4520 | inactive |
| FLOT2 (flotillin 2) | 3 | 0.73 | no change in migration or cell number | 5366 | inactive |
| FLOT2 (flotillin 2) | 4 | 1.08 | no change in migration or cell number | 5514 | inactive |
| IL1B (interleukin 1 beta) | 1 | 0.8 | no change in migration or cell number | 7000 | inactive |
| IL1B (interleukin 1 beta) | 2 | 0.46 | migration reduced | 4848 | active |
| IL1B (interleukin 1 beta) | 3 | 0.58 | migration reduced | 4634 | active |
| IL1B (interleukin 1 beta) | 4 | 0.21 | migration reduced | 4949 | active |
| LAX1 (lymphocyte transmembrane adaptor 1) | 1 | 0.42 | migration reduced | 5006 | active |
| LAX1 (lymphocyte transmembrane adaptor 1) | 2 | 1.05 | no change in migration or cell number | 5920 | inactive |
| LAX1 (lymphocyte transmembrane adaptor 1) | 3 | 0.29 | too few cells; migration not scored | 3218 | inactive |
| LAX1 (lymphocyte transmembrane adaptor 1) | 4 | 0.82 | no change in migration or cell number | 5230 | inactive |
| FMN2 (formin 2) | 1 | 1 | no change in migration or cell number | 5813 | inactive |
| FMN2 (formin 2) | 2 | 1.02 | no change in migration or cell number | 5478 | inactive |
| FMN2 (formin 2) | 3 | 1.46 | migration increased | 4988 | active |
| FMN2 (formin 2) | 4 | 0.86 | no change in migration or cell number | 4433 | inactive |
| DOT1L (DOT1 like histone lysine methyltransferase) | 1 | 0.64 | no change in migration or cell number | 6874 | inactive |
| DOT1L (DOT1 like histone lysine methyltransferase) | 2 | 0.29 | migration reduced | 5087 | active |
| DOT1L (DOT1 like histone lysine methyltransferase) | 3 | 0.51 | migration reduced | 4380 | active |
| DOT1L (DOT1 like histone lysine methyltransferase) | 4 | 0.61 | no change in migration or cell number | 4831 | inactive |
